These results are taken from patent US20060257938A1, “Method of screening for drugs that block ligand binding to a lipid binding protein” (priority 2005, published 2006).

The chains are these.
B1: 38Y 72G 117M (protein, listed as Rattus norvegicus)
chain: AFDGTWKVDRNENYEKFMEKMGINVVKRKLGAHDNLKYTITQEGNKFTVKESSNFRNIDVVFELGVDFAYSGADGTELTGTWTMEGNKLVGKFKRVDNGKELIAVREISGNELIQTMTYEGVEAKRIFKKE
modifications: PEPTIDE (1)...(131) wild-type rat intestinal fatty acid binding protein
B2: 62Y, 72A (protein, listed as Rattus norvegicus)
chain: AFDGTWKVDRNENYEKFMEKMGINVVKRKLGAHDNLKLTITQEGNKFTVKESSNFRNIDVVYELGVDFAYSAADGTELTGTWTMEGNKLVGKFKRVDNGKELIAVREISGNELIQTYTYEGVEAKRIFKKE
modifications: PEPTIDE (1)...(131) wild-type rat intestinal fatty acid binding protein
B3: 38A 106V 117A 72A (protein, listed as Rattus norvegicus)
chain: AFDGTWKVDRNENYEKFMEKMGINVVKRKLGAHDNLKATITQEGNKFTVKESSNFRNIDVVFELGVDFAYSAADGTELTGTWTMEGNKLVGKFKRVDNGKELIAVVEISGNELIQTATYEGVEAKRIFKKE
modifications: PEPTIDE (1)...(131) wild-type rat intestinal fatty acid binding protein
B4: 115W, 72A (protein, listed as Rattus norvegicus)
chain: AFDGTWKVDRNENYEKFMEKMGINVVKRKLGAHDNLKLTITQEGNKFTVKESSNFRNIDVVFELGVDFAYSAADGTELTGTWTMEGNKLVGKFKRVDNGKELIAVREISGNELIWTYTYEGVEAKRIFKKE
modifications: PEPTIDE (1)...(131) wild-type rat intestinal fatty acid binding protein
B5: 70Q, 72A (protein, listed as Rattus norvegicus)
chain: AFDGTWKVDRNENYEKFMEKMGINVVKRKLGAHDNLKLTITQEGNKFTVKESSNFRNIDVVFELGVDFAQSAADGTELTGTWTMEGNKLVGKFKRVDNGKELIAVREISGNELIQTYTYEGVEAKRIFKKE
modifications: PEPTIDE (1)...(131) wild-type rat intestinal fatty acid binding protein
B6: 31F, 72A (protein, listed as Rattus norvegicus)
chain: AFDGTWKVDRNENYEKFMEKMGINVVKRKLFAHDNLKLTITQEGNKFTVKESSNFRNIDVVFELGVDFAYSAADGTELTGTWTMEGNKLVGKFKRVDNGKELIAVREISGNELIQTYTYEGVEAKRIFKKE
modifications: PEPTIDE (1)...(131) wild-type rat intestinal fatty acid binding protein
B7: 119L, 72A (protein, listed as Rattus norvegicus)
chain: AFDGTWKVDRNENYEKFMEKMGINVVKRKLGAHDNLKLTITQEGNKFTVKESSNFRNIDVVFELGVDFAYSAADGTELTGTWTMEGNKLVGKFKRVDNGKELIAVREISGNELIQTYTLEGVEAKRIFKKE
modifications: PEPTIDE (1)...(131) wild-type rat intestinal fatty acid binding protein
B8: 73Y, 72A (protein, listed as Rattus norvegicus)
chain: AFDGTWKVDRNENYEKFMEKMGINVVKRKLGAHDNLKLTITQEGNKFTVKESSNFRNIDVVFELGVDFAYSAYDGTELTGTWTMEGNKLVGKFKRVDNGKELIAVREISGNELIQTYTYEGVEAKRIFKKE
modifications: PEPTIDE (1)...(131) wild-type rat intestinal fatty acid binding protein
B9: 40V, 72A (protein, listed as Rattus norvegicus)
chain: AFDGTWKVDRNENYEKFMEKMGINVVKRKLGAHDNLKLTVTQEGNKFTVKESSNFRNIDVVFELGVDFAYSAADGTELTGTWTMEGNKLVGKFKRVDNGKELIAVREISGNELIQTYTYEGVEAKRIFKKE
modifications: PEPTIDE (1)...(131) wild-type rat intestinal fatty acid binding protein
B10: 14L 18L 31W 73W 117L 72A (protein, listed as Rattus norvegicus)
chain: AFDGTWKVDRNENLEKFLEKMGINVVKRKLWAHDNLKLTITQEGNKFTVKESSNFRNIDVVFELGVDFAYSAWDGTELTGTWTMEGNKLVGKFKRVDNGKELIAVREISGNELIQTLTYEGVEAKRIFKKE
modifications: PEPTIDE (1)...(131) wild-type rat intestinal fatty acid binding protein
B11: 23V, 72A (protein, listed as Rattus norvegicus)
chain: AFDGTWKVDRNENYEKFMEKMGVNVVKRKLGAHDNLKLTITQEGNKFTVKESSNFRNIDVVFELGVDFAYSAADGTELTGTWTMEGNKLVGKFKRVDNGKELIAVREISGNELIQTYTYEGVEAKRIFKKE
modifications: PEPTIDE (1)...(131) wild-type rat intestinal fatty acid binding protein
B12: 14I 18V 31W 73I 117V 72A (protein, listed as Rattus norvegicus)
chain: AFDGTWKVDRNENIEKFVEKMGINVVKRKLWAHDNLKLTITQEGNKFTVKESSNFRNIDVVFELGVDFAYSAIDGTELTGTWTMEGNKLVGKFKRVDNGKELIAVREISGNELIQTVTYEGVEAKRIFKKE
modifications: PEPTIDE (1)...(131) wild-type rat intestinal fatty acid binding protein
B13: 104S, 72A (protein, listed as Rattus norvegicus)
chain: AFDGTWKVDRNENYEKFMEKMGINVVKRKLGAHDNLKLTITQEGNKFTVKESSNFRNIDVVFELGVDFAYSAADGTELTGTWTMEGNKLVGKFKRVDNGKELISVREISGNELIQTYTYEGVEAKRIFKKE
modifications: PEPTIDE (1)...(131) wild-type rat intestinal fatty acid binding protein
B14: 14L 38I 72A (protein, listed as Rattus norvegicus)
chain: AFDGTWKVDRNENLEKFMEKMGINVVKRKLGAHDNLKITITQEGNKFTVKESSNFRNIDVVFELGVDFAYSAADGTELTGTWTMEGNKLVGKFKRVDNGKELIAVREISGNELIQTYTYEGVEAKRIFKKE
modifications: PEPTIDE (1)...(131) wild-type rat intestinal fatty acid binding protein
B15: 31W, 72A (protein, listed as Rattus norvegicus)
chain: AFDGTWKVDRNENYEKFMEKMGINVVKRKLWAHDNLKLTITQEGNKFTVKESSNFRNIDVVFELGVDFAYSAADGTELTGTWTMEGNKLVGKFKRVDNGKELIAVREISGNELIQTYTYEGVEAKRIFKKE
modifications: PEPTIDE (1)...(131) wild-type rat intestinal fatty acid binding protein
B16: 11Q, 72A (protein, listed as Rattus norvegicus)
chain: AFDGTWKVDRQENYEKFMEKMGINVVKRKLGAHDNLKLTITQEGNKFTVKESSNFRNIDVVFELGVDFAYSAADGTELTGTWTMEGNKLVGKFKRVDNGKELIAVREISGNELIQTYTYEGVEAKRIFKKE
modifications: PEPTIDE (1)...(131) wild-type rat intestinal fatty acid binding protein
B17: 126K, 72A (protein, listed as Rattus norvegicus)
chain: AFDGTWKVDRNENYEKFMEKMGINVVKRKLGAHDNLKLTITQEGNKFTVKESSNFRNIDVVFELGVDFAYSAADGTELTGTWTMEGNKLVGKFKRVDNGKELIAVREISGNELIQTYTYEGVEAKKIFKKE
modifications: PEPTIDE (1)...(131) wild-type rat intestinal fatty acid binding protein
B18: 18L, 72A (protein, listed as Rattus norvegicus)
chain: AFDGTWKVDRNENYEKFLEKMGINVVKRKLGAHDNLKLTITQEGNKFTVKESSNFRNIDVVFELGVDFAYSAADGTELTGTWTMEGNKLVGKFKRVDNGKELIAVREISGNELIQTYTYEGVEAKRIFKKE
modifications: PEPTIDE (1)...(131) wild-type rat intestinal fatty acid binding protein
B19: 14W 18L 117S 72A (protein, listed as Rattus norvegicus)
chain: AFDGTWKVDRNENWEKFLEKMGINVVKRKLGAHDNLKLTITQEGNKFTVKESSNFRNIDVVFELGVDFAYSAADGTELTGTWTMEGNKLVGKFKRVDNGKELIAVREISGNELIQTSTYEGVEAKRIFKKE
modifications: PEPTIDE (1)...(131) wild-type rat intestinal fatty acid binding protein
B20: 49M, 72A (protein, listed as Rattus norvegicus)
chain: AFDGTWKVDRNENYEKFMEKMGINVVKRKLGAHDNLKLTITQEGNKFTMKESSNFRNIDVVFELGVDFAYSAADGTELTGTWTMEGNKLVGKFKRVDNGKELIAVREISGNELIQTYTYEGVEAKRIFKKE
modifications: PEPTIDE (1)...(131) wild-type rat intestinal fatty acid binding protein
B21: 21D, 72A (protein, listed as Rattus norvegicus)
chain: AFDGTWKVDRNENYEKFMEKDGINVVKRKLGAHDNLKLTITQEGNKFTVKESSNFRNIDVVFELGVDFAYSAADGTELTGTWTMEGNKLVGKFKRVDNGKELIAVREISGNELIQTYTYEGVEAKRIFKKE
modifications: PEPTIDE (1)...(131) wild-type rat intestinal fatty acid binding protein
B22: 40M, 72A (protein, listed as Rattus norvegicus)
chain: AFDGTWKVDRNENYEKFMEKMGINVVKRKLGAHDNLKLTMTQEGNKFTVKESSNFRNIDVVFELGVDFAYSAADGTELTGTWTMEGNKLVGKFKRVDNGKELIAVREISGNELIQTYTYEGVEAKRIFKKE
modifications: PEPTIDE (1)...(131) wild-type rat intestinal fatty acid binding protein

One series is described as follows: Baseline fluorescence ratio Ro of probe in absence of analyte. The note with it: baseline fluorescence ratio of probe.
Consider B1, for which the Ro is 0.204. Take B2: the Ro is given as 0.238.

Turning to B3, the Ro was 0.418. The same measure, in the same setting: the same measure for B4: 0.367.

The same series, now with this note: baseline fluorescence ratio of probe, no fatty acid.
On to B5, for which the Ro stood at 0.307.

As for B6, the Ro is on record as 0.492. Still for that read-out and setting: the same measure for B7: 0.349; for B8: 0.282; for B9: 0.164. B10: the Ro is reported as 0.201. On the same count and under the same terms, the same measure for B11: 0.167. Same read-out and setting: under B12 stands 0.287; under B13, 0.242. The same measure, in the same setting: the same measure for B3: 0.418; for B14: 0.267.

With B15, the Ro is on record as 0.462.

As for B16, the Ro is 0.262. Still for that read-out and setting: the same measure for B17: 0.455; for B18: 0.265; for B19: 0.228. On the same count and under the same terms, the same measure for B20: 0.347.

Consider B21, for which the Ro is 0.359.

In the case of B22, the Ro worked out at 0.195.
